# According to the supplement of paper PMC10735217:
# Where a name gives a salt, the structure may show the parent alone. The list shows a part of the results. Repeats in this data set agree poorly, so a single value says little.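 In a drug-repurposing library screen, luminescence reads luciferase driven by eight TEAD-binding elements, stably integrated into human kidney-derived cells. Compounds scoring over five robust Z scores above the plate mean are called hits.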
# Test system: HEK293A TEAD-LUC reporter
# Assay: TEAD-luciferase reporter activity (YAP activation), robust Z score vs plate; higher = stronger YAP/TEAD activation
# Settings: 24 h
Structure (SMILES),TEAD-luciferase reporter activity (compound concentration: 200 nM),TEAD-luciferase reporter activity (compound concentration: 10 uM),TEAD-luciferase reporter activity (compound concentration: 2 uM)
N[C@]1(C[n+]2ccccc2)C[C@H](C(=O)O)NC1=O,inactive: 0.000636,inactive: 0.029,–
CC(C)COc1cccc2[nH]c(C(=O)NC3CCN(CCN4CCCCCC4)CC3)cc12,inactive: -1.34,inactive: 0.901,inactive: -0.493
OC[C@H]1NC[C@H](O)[C@@H](O)[C@@H]1O [Duvoglustat hydrochloride],–,–,inactive: 0.323
OC[C@H]1NC[C@H](O)[C@@H](O)[C@@H]1O [Duvoglustat],inactive: -0.366,inactive: -0.641,–
OC[C@H]1NC[C@H](O)[C@@H](O)[C@@H]1O [1-Deoxynojirimycin],–,–,inactive: 2.29
CC(C)(C)C[C@@H]1N[C@@H](C(=O)N[C@H]2CC[C@H](O)CC2)[C@H](c2cccc(Cl)c2F)[C@]12C(=O)Nc1cc(Cl)ccc12,inactive: -0.396,inactive: -1.16,inactive: -1.06
O=C(c1ccc(F)cc1)N1CCC(C(=O)N2CCC(N3CCCC3=O)CC2)CC1,inactive: 0.146,inactive: 0.189,–
CC(C)NC(=O)COc1cccc(-c2nc(Nc3ccc4[nH]ncc4c3)c3ccccc3n2)c1,inactive: 1.13,inactive: -0.206,inactive: -1.93
Cc1ccc(-c2nc(N)nc3c2nnn3Cc2cccc(CO[C@H]3CCOC3)n2)o1,inactive: -1.61,inactive: 0.274,inactive: 0.352
CC(C)C(=O)OC[C@@]1(N=[N+]=[N-])O[C@@H](n2ccc(N)nc2=O)[C@H](OC(=O)C(C)C)[C@@H]1OC(=O)C(C)C [Balapiravir hydrochloride],inactive: -1.22,inactive: 1.57,inactive: -2.06
CCN(CC)CCNc1ccc(C)c2sc3ccccc3c(=O)c12,inactive: -0.95,inactive: 2.58,inactive: -2.49
CCCCCCCCCCCCCCCCCCN(C)C,inactive: -1.02,inactive: -0.0974,inactive: 0.379
CC(C)C[C@H](NC(=O)N1CCCCCC1)C(=O)N[C@H](Cc1cn(C)c2ccccc12)C(=O)N[C@H](Cc1ccccn1)C(=O)O,inactive: -0.309,inactive: 0.511,inactive: 1.39
C/C=C/C[C@@H](C)C(=O)[C@H]1C(=O)N[C@@H](C(C)C)C(=O)N(C)CC(=O)N(C)[C@@H](CC(C)C)C(=O)N[C@@H](C(C)C)C(=O)N(C)[C@@H](CC(C)C)C(=O)N[C@@H](C)C(=O)N[C@H](C)C(=O)N(C)[C@@H](CC(C)C)C(=O)N(C)[C@@H](CC(C)C)C(=O)N(C)[C@@H](C(C)C)C(=O)N1C [Valspodar],inactive: -2.14,inactive: -0.707,inactive: -0.563
CCCCc1nc(Cl)c(CO)n1Cc1ccc(-c2ccccc2C#N)cc1,inactive: -0.566,inactive: -0.821,inactive: -1.15
Cc1[nH]cnc1CC1CCc2c(C)c3ccccc3n2C1=O (stereo not given),inactive: 0.614,inactive: 0.241,inactive: -0.22
"N[C@@H]1CCCC[C@H]1N (relative stereo) [trans-1,2-Diaminocyclohexane]",inactive: -0.286,inactive: -0.894,inactive: -1.53
C1CCc2c(c3c(N4CCCC4)nc(N4CCCC4)nc3n2CCN2CCOCC2)C1,inactive: -0.139,inactive: 0.912,inactive: -1.43
O=C(c1ccccn1)c1cnn2c(-c3ccncc3)ccnc12 [ocinaplon controlled-release],inactive: 0.632,inactive: -1.46,inactive: -1.49
O=C(Nc1ccc([N+](=O)[O-])cc1O)Nc1ccccc1Br,inactive: 3.81,inactive: 1.91,inactive: 1.86
Cc1cc(O)c(S(=O)(=O)O)cc1Cc1cc(S(=O)(=O)O)c(O)cc1C [Dicresulene Hydrate],inactive: -0.00772,inactive: 0.395,inactive: 0.69
Cc1c(N2C[C@@H]3CCCN[C@@H]3C2)c(F)cn2c(=O)c(C(=O)O)cc(C3CC3)c12,inactive: -0.179,inactive: -1.25,inactive: 0.21
COc1cc(C)c(S(C)=O)cc1O (stereo not given),inactive: -1.8,inactive: -1.51,inactive: -1.58
Cc1ccnc2c1NC(=O)c1cccnc1N2C1CC1 [Viramune],inactive: -0.515,inactive: 0.109,–
Cc1ccnc2c1NC(=O)c1cccnc1N2C1CC1 [nevirapine],–,–,inactive: 0.675
C[C@@H]1CCO[C@H]2Cn3cc(C(=O)NCc4ccc(F)cc4F)c(=O)c(O)c3C(=O)N12 [Dolutegravir sodium],inactive: -0.723,inactive: 1.22,inactive: -1.06
CN1CCN(C(c2ccccc2)c2ccc(Cl)cc2)CC1 (stereo not given),inactive: -0.538,inactive: -1.09,–
CN1CCN(C(c2ccccc2)c2ccc(Cl)cc2)CC1 (stereo not given) [Chlorcyclizine hydrochloride],–,–,inactive: -0.506

# Shown bar-delimited: part of the list above
Structure (SMILES) | TEAD-luciferase reporter activity (compound concentration: 200 nM) | TEAD-luciferase reporter activity (compound concentration: 10 uM) | TEAD-luciferase reporter activity (compound concentration: 2 uM)
CC(C)COc1cccc2[nH]c(C(=O)NC3CCN(CCN4CCCCCC4)CC3)cc12 | inactive: -1.34 | inactive: 0.901 | inactive: -0.493
O=C(Nc1ccc([N+](=O)[O-])cc1O)Nc1ccccc1Br | inactive: 3.81 | inactive: 1.91 | inactive: 1.86
Cc1cc(O)c(S(=O)(=O)O)cc1Cc1cc(S(=O)(=O)O)c(O)cc1C [Dicresulene Hydrate] | inactive: -0.00772 | inactive: 0.395 | inactive: 0.69
Cc1c(N2C[C@@H]3CCCN[C@@H]3C2)c(F)cn2c(=O)c(C(=O)O)cc(C3CC3)c12 | inactive: -0.179 | inactive: -1.25 | inactive: 0.21
Cc1ccnc2c1NC(=O)c1cccnc1N2C1CC1 [Viramune] | inactive: -0.515 | inactive: 0.109 | –

# Following part.

Structure (SMILES),TEAD-luciferase reporter activity (compound concentration: 200 nM),TEAD-luciferase reporter activity (compound concentration: 10 uM),TEAD-luciferase reporter activity (compound concentration: 2 uM)
O=C(O)CC(S)C(=O)O (stereo not given) [Thiomalic acid],–,–,inactive: -1.6
O=C(O)CC(S)C(=O)O (stereo not given),inactive: 0.784,inactive: -0.673,–
O=C(c1ccccc1)N1CCC(N2Cc3ccccc3C2=O)CC1,active: 5.72,inactive: 2.79,–
CCCN(c1ccncc1)n1ccc2ccccc21 [besipirdine],inactive: -0.873,inactive: 2.56,inactive: -0.0526
C[C@@H](NC(=O)[C@@H]1C[C@@]1(C)c1ccc(C(F)(F)F)cc1)c1cc(F)c(NS(C)(=O)=O)c(F)c1,inactive: -0.853,inactive: 0.0357,inactive: 0.283
c1ccc(C(CC2=NCCN2)c2ccccn2)cc1 (stereo not given),inactive: 0.104,inactive: -0.499,inactive: -0.0496
N=C(N)NCCC[C@@H](NC(=O)[C@@H]1CCCN1C(=O)[C@@H]1CSSCCC(=O)N[C@@H](Cc2ccc(O)cc2)C(=O)N[C@@H](Cc2ccccc2)C(=O)N[C@@H](CCC(N)=O)C(=O)N[C@@H](CC(N)=O)C(=O)N1)C(=O)NCC(N)=O [desmopressin],inactive: -3.23,inactive: -2.58,inactive: -0.0199
O=C(Oc1ccccc1C(=O)O)c1cccs1 [Tenosal],inactive: 0.0717,inactive: -0.761,inactive: 0.316
O=C(O)c1cn(C2CC2)c2cc(N3CCNCC3)c(F)cc2c1=O,inactive: -0.135,inactive: 1.99,–
O=C(O)c1cn(C2CC2)c2cc(N3CCNCC3)c(F)cc2c1=O [Suroquin],–,–,inactive: -2.12
CCCCCCCCCCCCCC[C@@H](O)[C@@H](O)[C@@H](N)CO [Phytosphingosine hydrochloride],–,–,inactive: -1.83
CCCCCCCCCCCCCC[C@@H](O)[C@@H](O)[C@@H](N)CO,inactive: -0.861,inactive: 0.936,–
CC1(C)CCCN1C(=O)c1ccc(-c2cc(F)ccc2OCC(=O)O)cc1Cl,inactive: -0.654,inactive: -1.25,inactive: 1.46
COc1ccc(CCNC(=O)COc2cc(O)c3c(=O)cc(-c4ccccc4)oc3c2)cc1,inactive: -0.973,inactive: -2.14,inactive: -0.743
O=C(O)CCCc1ccccc1,inactive: 0.81,inactive: -0.0424,inactive: 0.434
O=C1c2cccc(O)c2C(=O)c2c(O)cccc21,inactive: -1.44,inactive: 1.95,inactive: 2.66
CC(=O)OC(C)C(=O)OCC[N+](C)(C)C (stereo not given) [aclatonium napadisilate],inactive: -1.71,inactive: 2.1,inactive: -0.335
CCOC(=O)[C@@H](N)CCC(=O)N[C@@H](CSCc1ccccc1)C(=O)N[C@@H](C(=O)OCC)c1ccccc1 [ezatiostat hydrochloride],inactive: -0.859,inactive: 4.01,inactive: -1.56
C#C[C@]1(O)CC[C@H]2[C@@H]3CCC4=CC(N=O)CC[C@@H]4[C@H]3CC[C@@]21CC (stereo not given in full) [Norelgestromin],inactive: -1.17,inactive: -2.31,inactive: -0.0673
O=C(Nc1cccnn1)N1CCC(=Cc2cccc(Oc3ccc(C(F)(F)F)cn3)c2)CC1,inactive: 0.148,inactive: -1.14,inactive: -0.973
CCCCC[C@H](O)/C=C/[C@H]1[C@H](O)CC(=O)[C@@H]1C/C=C\CCCC(=O)OC,inactive: -0.832,inactive: -0.377,inactive: -0.615
Cc1c(O)cc(C(C)C)cc1OCCN(C)C [Deacetyl moxisylyte hydrochloride],inactive: 0.286,inactive: -0.137,inactive: 0.185
COc1cccc2c1[C@@H]1CN(CCCCn3c(=O)[nH]c4c(sc5ncc(-c6ccccc6)nc54)c3=O)C[C@@H]1CO2 [Fiduxosin hydrochloride],inactive: -0.688,inactive: 0.756,inactive: -0.655
COc1ccccc1CN1CCCC12Cc1ccccc1CNC2=O (stereo not given),inactive: -0.471,inactive: -0.265,–
O=C(O)c1cccc(Cc2cc(Cl)ccc2OCc2ccc(Cl)cc2F)n1,inactive: -0.463,active: 8,inactive: -0.284
CCCCC(CC)CNC(=O)CC(C)OC(=O)CCC(=O)O (stereo not given) [butoctamide hydrogen succinate],inactive: 0.188,inactive: -1.34,inactive: -1.19
O=C(O)C1CN(CCCP(=O)(O)O)CCN1 (stereo not given),inactive: -0.0612,inactive: 1.32,–
